Source: the supplement of paper PMC12823440, “Inhibitors supercharge kinase turnover through native proteolytic circuits” (Nature, 2025)
Where a name gives a salt, the structure may show the parent alone. Some of the results follow. Hit calls seldom repeat between salt and free forms of one compound.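 Kinases, fused to nanoluciferase, were expressed in K562 cells; luminescence was measured every 4 h from 2 to 18 h as percent of control (DMSO = 100%, positive control = 0%). A time point is decreased if signal falls significantly (2 sigma). Hits were called by the authors by a rule that is not shown; the count of time points alone does not decide it.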

The chains behind the UniProt entries cited, without tags or fusion partners. Where a name states a change or a piece, a line headed by the entry shows the natural chain unless it says otherwise.
UniProt P07947, whole entry, looked up: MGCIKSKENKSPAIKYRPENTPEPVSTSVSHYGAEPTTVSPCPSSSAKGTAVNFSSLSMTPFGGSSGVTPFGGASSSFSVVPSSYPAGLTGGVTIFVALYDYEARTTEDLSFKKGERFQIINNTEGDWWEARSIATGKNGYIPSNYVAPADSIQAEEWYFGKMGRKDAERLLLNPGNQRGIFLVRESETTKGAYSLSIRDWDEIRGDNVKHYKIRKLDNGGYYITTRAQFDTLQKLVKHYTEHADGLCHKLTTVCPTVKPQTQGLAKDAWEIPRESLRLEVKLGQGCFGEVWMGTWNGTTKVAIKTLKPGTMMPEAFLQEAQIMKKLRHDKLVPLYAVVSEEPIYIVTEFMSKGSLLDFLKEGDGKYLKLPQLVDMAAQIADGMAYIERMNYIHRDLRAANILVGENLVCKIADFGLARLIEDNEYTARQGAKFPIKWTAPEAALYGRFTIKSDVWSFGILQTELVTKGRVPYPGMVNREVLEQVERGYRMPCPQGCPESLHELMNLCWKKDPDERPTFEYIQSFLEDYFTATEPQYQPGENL
UniProt P43403: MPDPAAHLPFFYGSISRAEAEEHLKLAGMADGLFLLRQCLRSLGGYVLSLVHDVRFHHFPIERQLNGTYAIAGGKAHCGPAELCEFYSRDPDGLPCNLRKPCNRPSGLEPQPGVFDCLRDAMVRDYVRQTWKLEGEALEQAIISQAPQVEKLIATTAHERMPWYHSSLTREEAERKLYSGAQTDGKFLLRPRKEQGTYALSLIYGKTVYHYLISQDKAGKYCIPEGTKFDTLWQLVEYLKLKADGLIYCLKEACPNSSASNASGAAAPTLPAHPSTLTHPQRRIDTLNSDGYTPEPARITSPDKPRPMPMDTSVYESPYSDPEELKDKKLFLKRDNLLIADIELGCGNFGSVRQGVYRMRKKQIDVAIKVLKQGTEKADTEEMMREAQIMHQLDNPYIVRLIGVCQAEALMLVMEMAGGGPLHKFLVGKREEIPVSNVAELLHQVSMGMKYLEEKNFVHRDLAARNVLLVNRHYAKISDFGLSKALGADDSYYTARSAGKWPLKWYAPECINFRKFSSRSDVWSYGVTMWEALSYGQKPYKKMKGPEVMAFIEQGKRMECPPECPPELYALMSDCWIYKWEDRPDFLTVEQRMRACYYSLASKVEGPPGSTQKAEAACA
UniProt P11802: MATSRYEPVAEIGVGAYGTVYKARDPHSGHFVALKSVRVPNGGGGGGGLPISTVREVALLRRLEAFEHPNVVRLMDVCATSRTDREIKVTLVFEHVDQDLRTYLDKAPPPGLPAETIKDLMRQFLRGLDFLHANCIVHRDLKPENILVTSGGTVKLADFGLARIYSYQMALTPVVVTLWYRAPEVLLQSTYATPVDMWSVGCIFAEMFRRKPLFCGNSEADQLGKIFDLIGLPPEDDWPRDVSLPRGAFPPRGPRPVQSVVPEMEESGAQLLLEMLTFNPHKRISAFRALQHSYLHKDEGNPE
UniProt P50613: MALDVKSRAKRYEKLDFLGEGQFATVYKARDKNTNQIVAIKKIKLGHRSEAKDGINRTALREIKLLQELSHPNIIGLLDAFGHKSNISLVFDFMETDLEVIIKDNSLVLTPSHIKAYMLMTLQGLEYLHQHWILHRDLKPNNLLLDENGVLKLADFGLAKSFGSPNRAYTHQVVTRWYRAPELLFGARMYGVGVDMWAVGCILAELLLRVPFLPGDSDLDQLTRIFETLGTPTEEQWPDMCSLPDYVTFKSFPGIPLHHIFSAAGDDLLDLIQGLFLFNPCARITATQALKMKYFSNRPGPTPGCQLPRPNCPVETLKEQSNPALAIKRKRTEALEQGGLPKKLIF
UniProt P50750, whole entry: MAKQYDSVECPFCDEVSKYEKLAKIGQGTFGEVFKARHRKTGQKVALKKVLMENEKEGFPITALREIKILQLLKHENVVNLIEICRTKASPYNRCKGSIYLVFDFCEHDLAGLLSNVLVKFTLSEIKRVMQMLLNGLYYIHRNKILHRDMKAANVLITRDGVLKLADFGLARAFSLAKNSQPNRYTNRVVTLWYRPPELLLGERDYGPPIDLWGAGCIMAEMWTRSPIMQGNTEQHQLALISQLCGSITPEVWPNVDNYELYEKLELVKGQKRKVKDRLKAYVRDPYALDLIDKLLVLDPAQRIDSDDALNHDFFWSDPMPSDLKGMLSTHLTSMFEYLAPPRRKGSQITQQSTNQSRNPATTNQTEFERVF

Assays:
Settings in all cases: K562; 2-18 h
YES1 = YES1 (UniProt P07947); test: number of time points (of 5) at which kinase-Nluc abundance scored as decreased, DMSO-normalised (count); higher = more persistent destabilization
ZAK = ZAK (UniProt Q9NYL2); test: as above
ZAP70 = ZAP70 (UniProt P43403); test: as above
CDK4 = CDK4 (UniProt P11802); test: number of time points (of 4; 2 h point missing) at which kinase-Nluc abundance scored as decreased, DMSO-normalised (count); higher = more persistent destabilization
CDK7 = CDK7 (UniProt P50613); test: as above
CDK9 = CDK9 (UniProt P50750); test: as above

SMILES | number of time points (YES1) | number of time points (ZAK) | number of time points (ZAP70) | number of time points (CDK4) | number of time points (CDK7) | number of time points (CDK9)
Cc1cccc2c3c(ccc12)C(=O)C1=C(OCC1C)C3=O (stereo not drawn) [Dihydroisotanshinone I] (2.5 µM) | 0 | 0 | 0 | 0 | 0 | 0
CCOC(=O)N1C/C(=C/c2ccccc2F)C(=O)/C(=C\c2ccccc2F)C1 (2.5 µM) | 0 | 0 | 0 | 0 | 0 | 0
CCc1cccc(CC)c1NC(=O)N1Cc2[nH]nc(NC(=O)c3ccc(N4CCN(C)CC4)cc3)c2C1 (2.5 µM) | 1 | 0 | 0 | 0 | 2 | 1
COc1cc(N2CCOCC2)ccc1Nc1ncc(Cl)c(Nc2ccccc2NS(C)(=O)=O)n1 (2.5 µM) | 0 | 0 | 0 | 0 | 0 | 0
Oc1cc(O)c2c(c1)OC1(c3ccc(O)c(O)c3)Oc3cc(O)c4c(c3C2C1O)OC(c1ccc(O)c(O)c1)C(O)C4 (stereo not drawn) [Procyanidin A1] (10 µM) | 0 | 0 | 0 | 0 | 0 | 0
Cc1ccc2c(Nc3cccc(Cl)c3F)nccc2c1NC(=O)c1csc2c(N)ncnc12 [Belvarafenib] (10 µM) | 0 | 0 | 0 | 2 | 0 | 0
O=C(O)c1cc(N(Cc2ccccc2O)Cc2ccccc2O)ccc1O [Lavendustin B] (10 µM) | 0 | 0 | 0 | 0 | 0 | 0
CC/C(=N\NC(=O)c1ccnc(NCCCN2CCOCC2)c1)c1ccc(Cl)cc1O (2.5 µM) | 0 | 0 | 0 | 0 | 0 | 0
c1cc(NC2CCNCC2)nc(-c2cnc3ccccn23)c1 [IRAK inhibitor 1] (10 µM) | 0 | 0 | 0 | 0 | 0 | 0
Cc1ccc(Oc2nc3cc(-c4ccc(-c5ccccc5)cc4)c(Cl)cc3[nH]2)cc1C(=O)O (10 µM) | 0 | 0 | 0 | 0 | 0 | 0
N#Cc1ccnc(Nc2cc(C3CCN(C4COC4)CC3)cc(N3CCC(F)(F)C3)n2)c1 (2.5 µM) | 0 | 0 | 0 | 0 | 0 | 0
N#CC(c1ccnc(OCc2ccc(CN3CCOCC3)cc2)n1)c1nc2ccccc2s1 (stereo not drawn) [Bentamapimod] (2.5 µM) | 0 | 0 | 0 | 0 | 0 | 0
CC(C)(C[C@H](N)C(=O)O)C(F)F [NV-5138 (hydrochloride)] (10 µM) | 0 | 0 | 0 | 0 | 0 | 0
O=c1cc(N2CCOCC2)nc2c3ccccc3ccn12 [Compound 401] (10 µM) | 0 | 0 | 0 | 0 | 0 | 0
CNC(=O)c1cc2c(Oc3ccc(NC(=S)NC(=O)Cc4ccccc4)cc3F)ccnc2cc1OC [TAS-115 mesylate] (10 µM) | 2 | 0 | 0 | 0 | 0 | 0
Cn1cnc([N+](=O)[O-])c1C[N+](C)(C)C/C=C/C(=O)Nc1cc2c(Nc3ccc(Cl)c(Br)c3)ncnc2cn1 [Tarloxotinib (bromide)] (10 µM) | 0 | 0 | 0 | 0 | 0 | 0
CC(C)N1CCN(c2ccc(Nc3ncc4cc5n(c4n3)C3(CCCCC3)CNC5=O)nc2)CC1 [Lerociclib (dihydrochloride)] (2 µM) | 0 | 0 | 0 | 0 | 1 | 0

Structural class: the entries above containing an aryl methoxy group.
SMILES | number of time points (YES1) | number of time points (ZAK) | number of time points (ZAP70) | number of time points (CDK4) | number of time points (CDK7) | number of time points (CDK9)
COc1cc(N2CCOCC2)ccc1Nc1ncc(Cl)c(Nc2ccccc2NS(C)(=O)=O)n1 (2.5 µM) | 0 | 0 | 0 | 0 | 0 | 0
CNC(=O)c1cc2c(Oc3ccc(NC(=S)NC(=O)Cc4ccccc4)cc3F)ccnc2cc1OC [TAS-115 mesylate] (10 µM) | 2 | 0 | 0 | 0 | 0 | 0

Later entries:

SMILES | number of time points (YES1) | number of time points (ZAK) | number of time points (ZAP70) | number of time points (CDK4) | number of time points (CDK7) | number of time points (CDK9)
Cn1cc(-c2c[nH]c3ncnc(N4CCOCC4)c23)cc1C#N (10 µM) | 0 | 0 | 0 | 0 | 0 | 0
Cc1cnc(NC2CCOCC2)nc1-n1cnc(C(=O)N[C@H](CN)c2cc(F)cc(Cl)c2)c1 (10 µM) | 0 | 0 | 0 | 0 | 0 | 0
COc1cc(N2CCOCC2)ccc1NC(=O)c1csc(-c2cccnc2)n1 [IRAK inhibitor 6] (10 µM) | 0 | 0 | 0 | 0 | 0 | 0
C=CC(=O)N1C(=O)CC(c2ccc(F)cc2)Sc2ccccc21 (stereo not drawn) [GSK-3β inhibitor 3] (10 µM) | 1 | 0 | 0 | 0 | 2 | 0
CC(C)(C)n1nc(Cc2ccccc2O)c2c(N)ncnc21 (10 µM) | 0 | 0 | 0 | 0 | 1 | 0
Cc1c(-c2ccc(C(N)=O)c3[nH]c4cc(C(C)(C)O)ccc4c23)cccc1-n1cnc2ccccc2c1=O (2.5 µM) | 0 | 0 | 0 | 0 | 0 | 0
CC(C)CCNC(=O)c1ccc2c(c1)nc(Nc1n[nH]c3ccc(-c4ccccc4OC(F)(F)F)cc13)n2C1CCC(O)CC1 (stereo not drawn) [IRAK inhibitor 4 (trans)] (10 µM) | 0 | 0 | 0 | 0 | 0 | 0
CC(C)=CC(=O)O[C@H]1Cc2cc3ccc(=O)oc3cc2OC1(C)C [Decursin] (10 µM) | 0 | 0 | 0 | 0 | 0 | 0
COc1nn(C)cc1Nc1nccc(-c2c[nH]c3c(NC(=O)[C@@H](C)N4CCN(C)CC4)cccc23)n1 (10 µM) | 0 | 0 | 0 | 0 | 0 | 0
CN(c1ccc(NC(=O)Nc2ccc(OC(F)(F)F)cc2)cc1)c1ccnc(Nc2cccc(S(N)(=O)=O)c2)n1 (2.5 µM) | 1 | 1 | 0 | 0 | 3 | 0
O=C(CNc1cccc(Cl)c1)NC1CCCN(c2ncnc3[nH]ccc23)C1 (stereo not drawn) (10 µM) | 0 | 0 | 0 | 0 | 0 | 0
Oc1ccc(/C=C/c2cc(O)cc(O)c2)cc1 [Resveratrol] (10 µM) | 0 | 0 | 0 | 0 | 0 | 0
O=c1[nH]c(C2CCCN2)nc2c1oc1ccc(Cl)cc12 (stereo not drawn) [XL413 (hydrochloride)] (10 µM) | 0 | 0 | 0 | 0 | 0 | 0
Nc1nc(N)c2nc(-c3cccc(O)c3)cnc2n1 (10 µM) | 0 | 0 | 0 | 0 | 0 | 0
Cc1ccc(C(=O)Nc2sc(Nc3ccccc3)nc2C(N)=O)cc1 (10 µM) | 0 | 0 | 0 | 0 | 0 | 0
c1ccc(-c2nc3c(c(-n4ccc5cnccc54)n2)CCC3)nc1 (10 µM) | 0 | 0 | 0 | 0 | 0 | 0
